Experimental data from PMC6210734, “Unliganded Progesterone Receptor Governs Estrogen Receptor Gene Expression by Regulating DNA Methylation in Breast Cancer Cells”.

Biological target: T1, Progesterone receptor isoform B (PR-B) (Homo sapiens) (UniProt P06401)
T1 sequence (looked up, limits assumed): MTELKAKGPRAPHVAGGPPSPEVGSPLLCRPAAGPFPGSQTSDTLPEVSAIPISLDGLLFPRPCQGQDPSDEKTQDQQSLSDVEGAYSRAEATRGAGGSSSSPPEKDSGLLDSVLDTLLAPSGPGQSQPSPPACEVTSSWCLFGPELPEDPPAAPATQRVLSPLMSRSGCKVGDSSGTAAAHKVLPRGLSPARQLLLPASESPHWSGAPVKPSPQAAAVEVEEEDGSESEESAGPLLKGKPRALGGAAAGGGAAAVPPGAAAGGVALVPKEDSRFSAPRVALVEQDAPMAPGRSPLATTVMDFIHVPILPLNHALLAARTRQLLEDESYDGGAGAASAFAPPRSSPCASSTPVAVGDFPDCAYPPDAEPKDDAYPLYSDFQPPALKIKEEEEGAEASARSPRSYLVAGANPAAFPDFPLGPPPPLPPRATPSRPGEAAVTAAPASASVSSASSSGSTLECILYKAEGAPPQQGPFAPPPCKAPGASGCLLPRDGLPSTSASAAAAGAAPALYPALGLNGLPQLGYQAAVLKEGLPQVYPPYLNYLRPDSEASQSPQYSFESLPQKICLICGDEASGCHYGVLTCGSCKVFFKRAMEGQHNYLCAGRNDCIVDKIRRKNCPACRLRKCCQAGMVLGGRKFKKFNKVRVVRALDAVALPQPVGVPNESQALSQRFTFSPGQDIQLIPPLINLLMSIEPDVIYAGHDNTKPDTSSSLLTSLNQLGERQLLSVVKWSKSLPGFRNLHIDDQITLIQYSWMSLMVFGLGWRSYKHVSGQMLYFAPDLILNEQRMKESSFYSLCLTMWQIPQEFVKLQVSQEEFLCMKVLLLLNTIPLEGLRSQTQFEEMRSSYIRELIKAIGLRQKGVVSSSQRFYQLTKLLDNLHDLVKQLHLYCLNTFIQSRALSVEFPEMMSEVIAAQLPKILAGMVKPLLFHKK
Test: EMSA
Settings: EMSA: 20 min at room temperature, 5% acrylamide-bisacrylamide gel, salt and pH not stated, recombinant protein

[1] = less than no-CpG PRE, more than methylated

| Sequence | binding result [1] | other results |
| --- | --- | --- |
| GTTGAGTCAGAACGGTTCGTTCTCTAGGCAC (double strand) [PRE two CpGs, unmethylated] | binds more weakly | – |
| GTTGAGTCAGAACGGTTCGTTCTCTAGGCAC (double strand) [PRE two CpGs, methylated] | – | binding result (less than unmethylated two-CpG PRE, 5-methylcytosine (printed 'methylated cytosine') at C13 and C18 of reverse strand, only one forward strand listed, no methylation marked on it (hemimethylated)): binds more weakly |
| GTTGAGTCAGAACGGTTTGTTCTCTAGGCAC (double strand) [PRE one CpG, unmethylated] | binds more weakly | – |
| GTTGAGTCAGAACGGTTTGTTCTCTAGGCAC (double strand) [PRE one CpG, methylated] | – | binding result (less than unmethylated one-CpG PRE, 5-methylcytosine (printed 'methylated cytosine') at C18 of reverse strand, only one forward strand listed, no methylation marked on it (hemimethylated)): binds more weakly |

Construct, isoform or probe ends are uncertain for at least one entry. A weaker result is weaker than the reference pair of the same experiment. Protein sequences can lack the tags named with them.
